Measured values from PMC8138766.
These are yes or no findings as the source states them, for the method shown. For part of these data: Binding seen in cells or lysates may run through a third protein. Some entries that bind do so weakly or less than the wild type. Tags and fused reporters may be left off the sequences shown. One block for each binder: values may come before it.

Protein sequences, listed by entry. Tags and fused reporters are not part of them. Lines headed by an entry give the natural chain unless they say otherwise; changes in a name come on top.
UniProt P52286: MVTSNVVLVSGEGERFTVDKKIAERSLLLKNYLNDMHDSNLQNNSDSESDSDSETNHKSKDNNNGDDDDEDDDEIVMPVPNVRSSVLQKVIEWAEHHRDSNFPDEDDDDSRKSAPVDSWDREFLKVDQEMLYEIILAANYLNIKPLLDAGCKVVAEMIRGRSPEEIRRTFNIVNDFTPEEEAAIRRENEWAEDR

How the values were obtained:
[1] = target: T1, Rav2-FLAG (yeast) (UniProt Q03956); experiment: co-IP; anti-FLAG M2 affinity column on cleared lysate of galactose-induced yeast (bait Rav2-FLAG), PBS or TBSE pH 7.4, elution with FLAG peptide; Coomassie SDS-PAGE and immunoblots for V1 subunits A, B and C
T1 sequence: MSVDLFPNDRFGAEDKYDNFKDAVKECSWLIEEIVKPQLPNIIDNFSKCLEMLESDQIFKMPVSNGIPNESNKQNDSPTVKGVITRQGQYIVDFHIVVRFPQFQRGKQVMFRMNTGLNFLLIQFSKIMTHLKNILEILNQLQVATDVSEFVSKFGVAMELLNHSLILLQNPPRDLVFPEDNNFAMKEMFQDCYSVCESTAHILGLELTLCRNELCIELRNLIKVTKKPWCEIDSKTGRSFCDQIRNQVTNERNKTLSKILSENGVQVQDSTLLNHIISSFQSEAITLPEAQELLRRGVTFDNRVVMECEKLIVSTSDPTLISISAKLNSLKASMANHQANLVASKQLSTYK

[2] = target: RAVE complex (Regulator of the H+-ATPase of Vacuoles and Endosomes), purified via Rav2-FLAG (yeast) (UniProt P47104+Q03956+P52286); experiment: pull-down; SEC fractions of RAVE–V1 or RAVE with a 1.5-fold excess of the MBP-tagged protein and anti-FLAG M2 beads, PBS with 0.5 mg/ml BSA, 1.5 h at 4 °C; elution with FLAG peptide; Western blot; both purified

binding [1]: binds
B1: Rav1 (protein, UniProt P47104 1-1357)
chain: MSLNFLPGRPNATPQTACQATWQNHTIFAYCSGNNLIILTNKFTRLQTIYTQSDCTAVDINSQNGFIALSFHNRVLIYKPIHQIMQNPKWTQCCQLFHDDTPVNCLRWSSDNELAIGSDFLSFWKIKDNFGVYQPILQWNQKQPKPVYNVIISQDSQLIVSIGKYDCNAKLWKRVSIVGEQAIFNLTMLPHPKPITAMRWKKEPDQVSKNNTASHALYTLCEDKVLRIWSCFEMEKNHTVQIWGEVPLSPTQKFCVIIDNWIIRQTLSVKDSEIFDISDSDIVILGSMTGEMEVLALNNLSQDPPKPMTKKTISHKKVKKATMLNDTRYLYLPEIQPYDNVKGKLSFLVHDLQGVIRHLLIDILQLINNKTEDLSAALEHKFTGHNKSVQKLVRSSDGEALLTTSRFSENGVWYPQKLNHGVSLRLQNTIQTESPIKFAVVHELGKQVICLLENGALQAWECPTNRKEDSEQKQSYLRVETRLKEEKKIHPIVMLNTPEPKHSHERHFTALIFSDGSIKAFEVSLTRGIFEVKSDSLDIDGDDIYKISIIDPVHQTFVSNRPLISLITKKGLTRTYKAIVNYNDRHVQWIKACEINTGIMNCTCIRGSSTGKLCIVNSTGKVMSLWDLNRGVLEYEETFHNPIEDIDWTSTEYGQSIVSIGFTGYALLYTQLRYDYTNNTPSYLPIEKIDITAHTAHNIGDSVWMKNGTFVVASGNQFYIKDKSLDLTDPFTYQSIGSRKILSNDILHLSSVLNGPLPVYHPQFLIQAIYANKLQLVKELLLRLFLALRKLDFESQDVSNLDSNLGMDPLKYFIAKDRDYPVESFPDPYPCFNKTVSLALTEQLTKTTLPYLTRHQQITLITVIEAVDEVTKNENIVDYNGVRFLLGVKLFLSHKNIQKSILMRDVSWALHSDNKEILLSSIDRHITSWNRAREYRIAYWIKEQDLVKKFEDIAKYEFSKDDKRDPSRCAIFYLALKKKQILLSLWKMAIGHPEQQKMVRFISNDFTVPRWRTAALKNAFVLLSKHRYMDAAVFFLLTDSLKDCVNVLCKQVHDMDLAIGVCRVYEGDNGPVLGELLTAQMLPETIKENDRWKASFIYWKLRKQEVAIKALLTAPIDLENNSSIVDKEVCVNRSFLVEDPALLYLYNHLRNRNLKYFIGSLNVEAKIECTLILRVTDILCRMGCNYLAVSLVKNWKFIERNSIPVQKLLKSPTKDRAYSAIGAMASEPISTARMRPSLFDKFGSPSASDIESPNPKLPNSLLDDFLQPPPNSTSSNSLAQSSSSAPRSILDEFVSPSYSQHKENLTPKAPNDSVGETDNSENRKDKLSKDILDDLSSQKPQKPKKSAITKNLLDDFV

binding [2]: binds weakly
B2: maltose-binding protein (MBP)–tagged subunit C (protein, UniProt P31412 1-392)
chain: MATALYTANDFILISLPQNAQPVTAPGSKTDSWFNETLIGGRAFVSDFKIPEFKIGSLDTLIVESEELSKVDNQIGASIGKIIEILQGLNETSTNAYRTLPINNMPVPEYLENFQWQTRKFKLDKSIKDLITLISNESSQLDADVRATYANYNSAKTNLAAAERKKTGDLSVRSLHDIVKPEDFVLNSEHLTTVLVAVPKSLKSDFEKSYETLSKNVVPASASVIAEDAEYVLFNVHLFKKNVQEFTTAAREKKFIPREFNYSEELIDQLKKEHDSAASLEQSLRVQLVRLAKTAYVDVFINWFHIKALRVYVESVLRYGLPPHFNIKIIAVPPKNLSKCKSELIDAFGFLGGNAFMKDKKGKINKQDTSLHQYASLVDTEYEPFVMYIINL

binding [1]: binds weakly
B3: V1 subunit C (protein, UniProt P31412 1-392)
chain: B2 chain
